Measurements from “University of Dundee, Small-Polar-MMV Screening Library” (2021), ChEMBL document CHEMBL3988442.

Sequences of proteins named here, by UniProt entry; tags and fusion partners are left off. Residues count along the entry.
UniProt Q8IDJ8, 1-583: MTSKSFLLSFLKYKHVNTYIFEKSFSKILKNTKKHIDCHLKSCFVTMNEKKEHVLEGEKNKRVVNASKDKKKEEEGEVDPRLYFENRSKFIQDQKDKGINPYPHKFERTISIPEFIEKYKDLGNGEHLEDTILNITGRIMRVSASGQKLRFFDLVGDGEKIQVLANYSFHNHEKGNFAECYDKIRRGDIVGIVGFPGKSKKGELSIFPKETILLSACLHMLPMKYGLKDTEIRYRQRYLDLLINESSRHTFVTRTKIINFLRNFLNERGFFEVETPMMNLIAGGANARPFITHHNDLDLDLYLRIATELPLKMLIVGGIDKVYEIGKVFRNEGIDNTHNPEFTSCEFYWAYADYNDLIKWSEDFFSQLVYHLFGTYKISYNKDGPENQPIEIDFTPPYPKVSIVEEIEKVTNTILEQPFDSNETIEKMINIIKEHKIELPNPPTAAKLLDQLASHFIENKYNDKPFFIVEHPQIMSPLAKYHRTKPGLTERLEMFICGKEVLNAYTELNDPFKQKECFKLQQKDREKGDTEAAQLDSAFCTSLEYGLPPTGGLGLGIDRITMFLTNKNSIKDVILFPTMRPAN
UniProt Q4DA54, 1-478: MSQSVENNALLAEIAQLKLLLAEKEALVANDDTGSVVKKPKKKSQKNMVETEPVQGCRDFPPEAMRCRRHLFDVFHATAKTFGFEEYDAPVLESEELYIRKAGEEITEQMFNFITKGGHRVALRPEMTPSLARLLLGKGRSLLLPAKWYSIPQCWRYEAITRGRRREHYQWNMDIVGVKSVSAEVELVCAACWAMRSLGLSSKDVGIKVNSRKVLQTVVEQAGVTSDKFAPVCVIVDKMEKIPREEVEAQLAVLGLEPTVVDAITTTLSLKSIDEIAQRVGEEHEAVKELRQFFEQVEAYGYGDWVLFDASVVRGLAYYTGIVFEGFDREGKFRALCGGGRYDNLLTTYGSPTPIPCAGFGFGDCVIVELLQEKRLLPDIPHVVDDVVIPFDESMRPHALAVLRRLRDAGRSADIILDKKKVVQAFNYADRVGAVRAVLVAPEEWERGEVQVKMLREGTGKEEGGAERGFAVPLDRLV
UniProt I6X8D2, whole entry: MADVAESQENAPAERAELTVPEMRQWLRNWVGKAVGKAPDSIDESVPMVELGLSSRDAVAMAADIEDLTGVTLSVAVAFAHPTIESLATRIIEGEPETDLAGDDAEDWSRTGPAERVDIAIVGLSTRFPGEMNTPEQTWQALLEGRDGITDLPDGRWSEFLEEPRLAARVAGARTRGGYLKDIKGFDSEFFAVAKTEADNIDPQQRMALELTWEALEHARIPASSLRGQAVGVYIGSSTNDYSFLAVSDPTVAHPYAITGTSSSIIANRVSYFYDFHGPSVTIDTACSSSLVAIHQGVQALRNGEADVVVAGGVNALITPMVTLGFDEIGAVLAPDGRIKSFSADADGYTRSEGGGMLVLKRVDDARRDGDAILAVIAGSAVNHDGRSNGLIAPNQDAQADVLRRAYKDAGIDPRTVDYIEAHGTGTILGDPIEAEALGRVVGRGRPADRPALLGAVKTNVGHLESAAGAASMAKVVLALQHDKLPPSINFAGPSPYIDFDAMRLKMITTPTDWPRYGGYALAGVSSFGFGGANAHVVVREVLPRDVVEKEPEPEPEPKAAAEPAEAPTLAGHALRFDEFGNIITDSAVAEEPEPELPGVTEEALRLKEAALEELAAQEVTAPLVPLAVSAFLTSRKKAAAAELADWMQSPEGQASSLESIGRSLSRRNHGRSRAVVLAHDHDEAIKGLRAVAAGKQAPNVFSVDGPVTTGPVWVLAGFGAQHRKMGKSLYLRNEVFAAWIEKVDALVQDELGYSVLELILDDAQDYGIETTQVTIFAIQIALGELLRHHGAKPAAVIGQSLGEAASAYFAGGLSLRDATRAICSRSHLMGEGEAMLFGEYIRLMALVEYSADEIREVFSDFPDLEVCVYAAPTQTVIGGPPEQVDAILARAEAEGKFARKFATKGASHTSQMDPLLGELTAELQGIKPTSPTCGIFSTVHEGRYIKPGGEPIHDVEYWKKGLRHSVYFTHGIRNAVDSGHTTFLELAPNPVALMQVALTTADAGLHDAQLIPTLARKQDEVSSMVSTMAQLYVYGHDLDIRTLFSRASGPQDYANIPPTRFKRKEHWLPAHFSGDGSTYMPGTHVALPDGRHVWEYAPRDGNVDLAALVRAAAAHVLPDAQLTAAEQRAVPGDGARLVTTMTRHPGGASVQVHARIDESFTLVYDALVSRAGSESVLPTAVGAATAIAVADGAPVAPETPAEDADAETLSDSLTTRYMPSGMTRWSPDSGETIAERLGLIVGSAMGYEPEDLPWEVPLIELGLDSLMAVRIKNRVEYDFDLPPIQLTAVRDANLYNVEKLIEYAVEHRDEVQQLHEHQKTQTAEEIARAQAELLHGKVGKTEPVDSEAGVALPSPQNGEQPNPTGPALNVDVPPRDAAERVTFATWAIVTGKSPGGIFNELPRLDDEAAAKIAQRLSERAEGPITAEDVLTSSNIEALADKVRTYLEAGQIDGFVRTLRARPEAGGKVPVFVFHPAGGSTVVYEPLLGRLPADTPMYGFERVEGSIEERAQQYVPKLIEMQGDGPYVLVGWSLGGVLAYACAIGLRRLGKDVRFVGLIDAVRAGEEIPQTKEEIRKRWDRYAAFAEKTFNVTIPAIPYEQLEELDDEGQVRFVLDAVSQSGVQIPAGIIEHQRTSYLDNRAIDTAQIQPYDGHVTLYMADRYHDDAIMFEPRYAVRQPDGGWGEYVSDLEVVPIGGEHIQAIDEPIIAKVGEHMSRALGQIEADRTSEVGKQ

PfKRS1: 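Enzyme assay of the cytosolic lysyl-tRNA synthetase in 384-well plates, read by luminescence. Target: Lysine-tRNA ligase, Plasmodium falciparum 3D7 (UniProt Q8IDJ8). Tested at 30 µM. Higher reads as stronger inhibition, judged from the few compounds that gave an IC50. Of about 69,000 compounds tested this way, about 49 (0.071%) reached 50% or more in at least one test.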
TcHisRS: 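Histidine-tRNA ligase, Trypanosoma cruzi CL Brener (UniProt Q4DA54). Enzyme assay of histidyl-tRNA synthetase; the read-out is not stated. Concentration: 30 µM. Direction is inferred from retests: higher values go with stronger inhibition. Of about 69,000 compounds tested this way, about 31 (0.045%) reached 50% or more in at least one test.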
Pks13 thioesterase: 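Polyketide synthase Pks13, Mycobacterium tuberculosis (UniProt I6X8D2). Enzyme assay of the thioesterase domain of polyketide synthase 13; the read-out is not stated. Tested at 30 µM. Higher reads as stronger inhibition (inferred from which compounds were picked for retests). About 67,000 compounds were tested under these conditions; 0.46% (about 300) showed 50% or more at least once.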

The filed quantity is “Percent Effect” (%). The controls that fix the scale are not given in the record; negative values are as filed. Compounds were drawn at random from those tested, without regard to their results.

- c1cc(-c2cncnc2)cc(-c2ccn(CC3CCNC3)n2)c1 (stereo unspecified) : PfKRS1: 14.35%; TcHisRS: 18.4%; Pks13 thioesterase: -11.67%
- CCc1nc(C2CCCN2CC(=O)N2CCc3ccccc32)no1 (stereo unspecified) : PfKRS1: 1.648%; TcHisRS: 14.04%; Pks13 thioesterase: -6.974%
- Cc1nc(NCCc2ccccc2)cc(C(=O)N2CCOCC2)n1 : PfKRS1: 5.475%; TcHisRS: 3.509%; Pks13 thioesterase: -14.91%
- COCCN1CCC1c1cc(N)nc(C)n1 (stereo unspecified) : PfKRS1: 0.2733%; TcHisRS: 2.682%; Pks13 thioesterase: -8.373%
- COc1ccc(Br)cc1CCC(=O)N1CCC(O)CC1 : PfKRS1: 3.684%; TcHisRS: 7.182%; Pks13 thioesterase: -17.24%
- CC(=O)N1N=C(c2cccs2)OC1C(=O)NCc1ccc(C)o1 (stereo unspecified) : PfKRS1: 3.751%; TcHisRS: 3.409%; Pks13 thioesterase: 1.503%
- O=C(CCc1ccc2c(c1)CCO2)Nc1nnn[nH]1 : PfKRS1: 7.441%; TcHisRS: 10%; Pks13 thioesterase: 1.905%
- Cc1cccc(NS(=O)(=O)c2cc3c(c(C(=O)O)c2)OCCO3)c1 : PfKRS1: 2.303%; TcHisRS: 0%; Pks13 thioesterase: -8.672%
- CCOCCCC(=O)NCC(c1ccccc1)N1CCc2sccc2C1 (stereo unspecified) : PfKRS1: 2.063%; TcHisRS: -0.5128%; Pks13 thioesterase: -33.11%
- Cc1noc(C)c1CN1C[C@H](OCC(=O)N(C)C)[C@H]2OCCC[C@H]21 : PfKRS1: 1.186%; TcHisRS: 3.448%; Pks13 thioesterase: -5.412%
- Cc1cc(N2CCN(C3CCOCC3)CC(C(=O)N(C)C)C2)ncn1 (stereo unspecified) : PfKRS1: 0.834%; TcHisRS: 8.046%; Pks13 thioesterase: -4.657%
- CC(C)CCN1CCC2(CC1)NCc1ccccc1NC2=O : PfKRS1: 5.626%; TcHisRS: 2.959%; Pks13 thioesterase: -15.45%
- CC(C)CSCCCNC(=O)C1CCC1 : PfKRS1: 2.187%; TcHisRS: 4.972%; Pks13 thioesterase: -32.88%
- Cc1cc(OCC(=O)N2CCCC(c3noc(C)n3)C2)no1 (stereo unspecified) : PfKRS1: 2.883%; TcHisRS: -1.132%; Pks13 thioesterase: -6.84%
- COc1ccc2c(c1)CC(NCc1cccc(NC(C)=O)c1)CC2 (stereo unspecified) : PfKRS1: 8.531%; TcHisRS: 1.149%; Pks13 thioesterase: 0.2195%
- CC1c2ncc(Cn3cncn3)n2CCN1C(=O)C1CCOCC1 (stereo unspecified) : PfKRS1: 6.075%; TcHisRS: 4.865%
- Cc1nccn1C1CCCN(C(=O)c2cccc(Cn3ccnc3)c2)C1 (stereo unspecified) : PfKRS1: 0.5533%; TcHisRS: -1.143%; Pks13 thioesterase: -18.65%
- CC(=O)N(Cc1ncc(C)o1)C1CCN(Cc2nnc(C3CC3)o2)C1 (stereo unspecified) : PfKRS1: -1.875%; TcHisRS: -1.205%; Pks13 thioesterase: -7.058%
- O=C(c1nc(Cc2c[nH]c3ccccc23)no1)N1CCOCC1 : PfKRS1: -6%; TcHisRS: 3.96%; Pks13 thioesterase: -2.687%
- COCCN1C(=O)C2(CCC(C(=O)Nc3ccccn3)CC2)N=C1C (stereo unspecified) : PfKRS1: -1.028%; TcHisRS: 3.743%; Pks13 thioesterase: 17.69%
- Cc1nc(Nc2nnc(C)s2)cc(C2CCCN2)n1 (stereo unspecified) : PfKRS1: 1.963%; TcHisRS: 5.303%; Pks13 thioesterase: 5.104%
- OCC1(Cc2ccc(F)cc2F)CCCN(Cc2ccncc2)C1 (stereo unspecified) : PfKRS1: 4.654%; TcHisRS: 8.434%; Pks13 thioesterase: -43.48%
- CC(C)(C)n1cc(CNC2CCN(C(=O)c3ccncc3)CC2)cn1 : PfKRS1: 2.339%; TcHisRS: 7.006%; Pks13 thioesterase: -16.27%
- Cc1nc(C)n(CC2CCCN(Cc3ccc(F)cc3C#N)C2)n1 (stereo unspecified) : PfKRS1: -0.9192%; TcHisRS: 3.488%; Pks13 thioesterase: -6.525%
- Cc1cc(C)nc(Nc2cccc(C3CCCN(C)C3)n2)n1 (stereo unspecified) : PfKRS1: -2.434%; TcHisRS: 3.784%; Pks13 thioesterase: -59.37%
- CC(=O)N1CCCC1c1cncc(Oc2ccc(F)cc2)n1 (stereo unspecified) : PfKRS1: 8.253%; TcHisRS: 9.574%; Pks13 thioesterase: 10.31%
- Cc1ccsc1[C@@H]1CCN(C(=O)CCOc2ccccc2)C[C@H]1O : PfKRS1: 7.639%; TcHisRS: 2.97%; Pks13 thioesterase: -31.04%
- COCC1CN(C(=O)c2ccnnc2)Cc2c1cnn2C (stereo unspecified) : PfKRS1: -4.349%; TcHisRS: 3.825%; Pks13 thioesterase: -26.24%
- O=C(OCc1cccs1)c1cccc(C(=O)N2CCCC2)n1 : PfKRS1: 2.957%; TcHisRS: 0%; Pks13 thioesterase: -2.679%

Some entries from above, unchanged:

{"compound": "CCOCCCC(=O)NCC(c1ccccc1)N1CCc2sccc2C1", "stereo": "stereo unspecified", "PfKRS1": 2.063, "TcHisRS": -0.5128, "Pks13 thioesterase": -33.11}
{"compound": "Cc1nc(NCCc2ccccc2)cc(C(=O)N2CCOCC2)n1", "PfKRS1": 5.475, "TcHisRS": 3.509, "Pks13 thioesterase": -14.91}
{"compound": "O=C(c1nc(Cc2c[nH]c3ccccc23)no1)N1CCOCC1", "PfKRS1": -6, "TcHisRS": 3.96, "Pks13 thioesterase": -2.687}